Three molecules from PMC5059457 can be followed below.

Amino acid sequences for entries named in this document (tags omitted).
UniProt P39940: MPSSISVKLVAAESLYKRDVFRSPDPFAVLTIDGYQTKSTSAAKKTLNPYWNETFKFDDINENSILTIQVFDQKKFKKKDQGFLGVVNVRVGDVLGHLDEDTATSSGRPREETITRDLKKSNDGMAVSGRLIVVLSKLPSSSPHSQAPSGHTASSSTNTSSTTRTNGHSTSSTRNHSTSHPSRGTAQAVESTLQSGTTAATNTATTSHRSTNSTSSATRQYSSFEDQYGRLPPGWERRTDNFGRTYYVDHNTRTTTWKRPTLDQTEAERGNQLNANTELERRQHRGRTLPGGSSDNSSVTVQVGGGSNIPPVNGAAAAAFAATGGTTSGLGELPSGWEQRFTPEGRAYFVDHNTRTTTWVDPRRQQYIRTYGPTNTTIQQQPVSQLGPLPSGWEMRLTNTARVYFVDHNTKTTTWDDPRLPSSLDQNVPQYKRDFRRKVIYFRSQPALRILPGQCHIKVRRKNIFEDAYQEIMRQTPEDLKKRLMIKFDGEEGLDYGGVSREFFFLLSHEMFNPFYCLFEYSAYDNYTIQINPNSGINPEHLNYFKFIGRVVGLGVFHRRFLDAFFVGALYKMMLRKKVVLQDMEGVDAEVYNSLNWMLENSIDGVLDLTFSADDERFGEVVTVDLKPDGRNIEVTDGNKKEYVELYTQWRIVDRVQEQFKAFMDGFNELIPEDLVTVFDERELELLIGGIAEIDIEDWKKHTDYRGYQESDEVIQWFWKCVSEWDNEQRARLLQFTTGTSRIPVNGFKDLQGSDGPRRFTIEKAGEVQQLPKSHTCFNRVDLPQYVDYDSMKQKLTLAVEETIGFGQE

No constants are given. Whether binding was seen depends on the method and setting. Binding seen in cells or lysates may run through a third protein. Some entries that bind do so weakly or less than the wild type. Sequences can lack the tags named with a protein.

In test [1] the target is T1, Ubp3, endogenously C-terminally TAP-tagged (S. cerevisiae (endogenous, tagged at its locus)) (UniProt Q01477).
T1 sequence: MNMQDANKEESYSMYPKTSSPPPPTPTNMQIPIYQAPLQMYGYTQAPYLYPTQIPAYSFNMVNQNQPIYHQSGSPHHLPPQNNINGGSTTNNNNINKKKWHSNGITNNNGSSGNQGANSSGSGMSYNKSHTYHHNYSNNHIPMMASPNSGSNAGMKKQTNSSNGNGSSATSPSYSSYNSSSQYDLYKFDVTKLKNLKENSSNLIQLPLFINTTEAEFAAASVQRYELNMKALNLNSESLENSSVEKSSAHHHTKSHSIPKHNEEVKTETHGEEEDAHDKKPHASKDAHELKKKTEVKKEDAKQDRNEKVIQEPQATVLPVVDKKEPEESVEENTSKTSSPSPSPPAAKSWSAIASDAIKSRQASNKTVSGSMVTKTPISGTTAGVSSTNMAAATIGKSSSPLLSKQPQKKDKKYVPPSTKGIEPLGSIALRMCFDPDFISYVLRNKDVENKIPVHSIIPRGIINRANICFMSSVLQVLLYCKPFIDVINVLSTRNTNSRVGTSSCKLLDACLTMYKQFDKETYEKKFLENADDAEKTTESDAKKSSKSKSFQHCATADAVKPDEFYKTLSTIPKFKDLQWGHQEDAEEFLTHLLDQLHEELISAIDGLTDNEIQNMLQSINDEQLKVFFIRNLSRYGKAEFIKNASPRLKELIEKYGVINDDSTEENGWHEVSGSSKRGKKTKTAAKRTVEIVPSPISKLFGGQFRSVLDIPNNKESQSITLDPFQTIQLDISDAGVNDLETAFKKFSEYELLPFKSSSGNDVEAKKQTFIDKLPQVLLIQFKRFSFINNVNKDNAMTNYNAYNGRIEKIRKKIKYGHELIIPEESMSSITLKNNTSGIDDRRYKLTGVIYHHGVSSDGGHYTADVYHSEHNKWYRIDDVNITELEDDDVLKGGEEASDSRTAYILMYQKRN
Nature of the test: co-IP; IP of TAP-tagged Ubp2 or Ubp3 from cells crosslinked in vivo with 1% formaldehyde, kept at 25 °C or heat shocked (40 °C, 20 min); modified RIPA lysis, diluted to 0.1% SDS, washes with 300 mM NaCl; western blots for 3xHA-Rsp5 and Pgk1.

For test [2], the target named is T2, Ubp2, endogenously C-terminally TAP-tagged (S. cerevisiae (endogenous, tagged at its locus)) (UniProt Q01476).
T2 sequence: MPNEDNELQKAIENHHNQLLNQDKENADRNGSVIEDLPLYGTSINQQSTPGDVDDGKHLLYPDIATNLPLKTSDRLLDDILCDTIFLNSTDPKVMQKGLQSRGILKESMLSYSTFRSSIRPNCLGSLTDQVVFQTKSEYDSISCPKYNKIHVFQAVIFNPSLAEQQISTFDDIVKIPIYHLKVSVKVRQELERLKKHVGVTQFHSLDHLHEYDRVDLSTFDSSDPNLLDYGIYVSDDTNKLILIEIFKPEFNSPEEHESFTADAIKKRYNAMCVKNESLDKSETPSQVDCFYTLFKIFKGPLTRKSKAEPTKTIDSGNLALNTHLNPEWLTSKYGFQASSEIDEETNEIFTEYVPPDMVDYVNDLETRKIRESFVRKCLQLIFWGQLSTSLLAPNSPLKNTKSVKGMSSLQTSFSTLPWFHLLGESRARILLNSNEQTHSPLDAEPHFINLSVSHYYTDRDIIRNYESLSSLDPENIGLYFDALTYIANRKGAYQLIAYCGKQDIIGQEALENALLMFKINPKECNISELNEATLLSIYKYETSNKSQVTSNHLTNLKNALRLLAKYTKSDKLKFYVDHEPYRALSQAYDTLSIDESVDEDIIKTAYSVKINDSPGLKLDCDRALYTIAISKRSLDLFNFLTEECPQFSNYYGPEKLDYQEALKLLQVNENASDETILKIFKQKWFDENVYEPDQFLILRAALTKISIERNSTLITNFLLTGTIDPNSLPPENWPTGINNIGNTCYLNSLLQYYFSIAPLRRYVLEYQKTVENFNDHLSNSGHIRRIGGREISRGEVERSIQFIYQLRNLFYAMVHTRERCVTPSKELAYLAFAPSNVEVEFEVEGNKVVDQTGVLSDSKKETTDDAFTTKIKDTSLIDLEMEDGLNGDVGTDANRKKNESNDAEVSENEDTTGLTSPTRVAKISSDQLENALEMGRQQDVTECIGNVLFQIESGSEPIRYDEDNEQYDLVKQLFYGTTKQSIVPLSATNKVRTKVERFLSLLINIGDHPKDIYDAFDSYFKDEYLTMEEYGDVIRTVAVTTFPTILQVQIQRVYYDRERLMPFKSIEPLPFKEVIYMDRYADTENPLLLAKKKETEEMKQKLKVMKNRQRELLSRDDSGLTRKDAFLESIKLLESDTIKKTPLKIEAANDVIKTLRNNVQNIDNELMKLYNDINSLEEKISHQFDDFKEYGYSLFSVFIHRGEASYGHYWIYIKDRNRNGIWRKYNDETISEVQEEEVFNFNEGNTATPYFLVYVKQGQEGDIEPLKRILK
Described as above.

Test [3] has as its target 3xHA-tagged Rsp5 (S. cerevisiae) (UniProt P39940). Nature of the test: co-IP; reciprocal experiments to a1 (Supplementary Fig. 2b,c); crosslinked cells, with and without HS.

Regarding “3xHA-tagged Rsp5 (from UniProt P39940 1-809) (enzyme)”, in test [1], the binding result is listed as “binds”.

B1: Pgk1 (3-phosphoglycerate kinase) (protein, UniProt P00560 1-416)
chain: MSLSSKLSVQDLDLKDKRVFIRVDFNVPLDGKKITSNQRIVAALPTIKYVLEHHPRYVVLASHLGRPNGERNEKYSLAPVAKELQSLLGKDVTFLNDCVGPEVEAAVKASAPGSVILLENLRYHIEEEGSRKVDGQKVKASKEDVQKFRHELSSLADVYINDAFGTAHRAHSSMVGFDLPQRAAGFLLEKELKYFGKALENPTRPFLAILGGAKVADKIQLIDNLLDKVDSIIIGGGMAFTFKKVLENTEIGDSIFDKAGAEIVPKLMEKAKAKGVEVVLPVDFIIADAFSADANTKTVTDKEGIPAGWQGLDNGPESRKLFAATVAKAKTIVWNGPPGVFEFEKFAAGTKALLDEVVKSSAAGNTVIIGGGDTATVAKKYGVTDKISHVSTGGGASLELLEGKELPGVAFLSEKK
Consider B1, for which the binding entry in test [1] and in test [2] was “no binding” throughout.

B2: Ubp3, endogenously C-terminally TAP-tagged (enzyme, UniProt Q01477 1-912)
chain: T1 sequence
With B2, the binding entry in test [3] is “binds”.
